Drawing on PubChem BioAssay AID1347423 (Functional Genomics Laboratory (NCATS/FGL), 2020), this text covers z-score for 104 sequences.

About 210 (0.4%) of roughly 52,000 sequences were called active.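 Rule for the calls: active = gene whose silencing raises cell survival under the drug, median off-target-corrected z-score across its silencing RNAs 2 or more; inactive = the rest.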 This is one part of the list.

The experiment in a line: Resistance to Poly (ADP-Ribose) Polymerase inhibitor: Gene Identification via Genome-wide siRNA Screen. The settings on record: mouse BRCA2 R2336H ES cells, olaparib, CellTiter-Glo viability; active compounds read high. An outline of the steps:
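Mouse BRCA2 R2336H ES cells were reverse-transfected with siRNA (20 nM final), treated at 48 h with 500 nM olaparib, and read by CellTiter-Glo after 72 h. Scores: MAD-based z per siRNA, median per gene, seed off-target correction.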
(In ATP-based viability assays light output follows the ATP content of the culture.)
Consider “GCAAAGCUGAUGGACUCAATT against 2410018M08Rik”, for which the z-score was inactive: -0.965.
With “GCGUGCUCUUUUUAACUACTT against 9430099J10Rik” the figure was inactive: 1.86; with “GGUUCUUCGAAGCAAUAGCTT against 4930544G21Rik”, inactive: 1.13.
GGAGCACAACAUUUUUAUGTT against Atp6v0d2: the z-score is inactive: 0.478.
Regarding GCUAUAGGUUAGAUUCAAATT against LOC434228, the z-score was inactive: 2.05.
For the sequence GGAUCAUUGUCAAAGUUCUTT against BC011426, the z-score is inactive: -0.403.
As to CCUUGAUUGAGCCUGACUUTT against Hook2, the z-score was inactive: 1.3.
With GGUGAUAAAGGCUGGAGUGTT against Wnt9a the figure was inactive: -0.764; with GGAAAAAGAUGUCCUAUCUTT against Rufy2, inactive: 1.1.
Consider GGGAUCCAAUCAAGAAGUATT against Lmcd1, for which the z-score is inactive: 0.242.
For CCUACUCAUUUGAAUCAAGTT against Itih2, the z-score was inactive: 0.228.
Regarding GGGACAGAGAAUGAAGAUGTT against Tnfrsf21, the z-score was inactive: -0.397.
CGUAUUGACAGUGGAAAUCTT against Gpr12: the z-score was inactive: 0.0615.
Regarding GCAUGUGGUACAGAUAGCUTT against Kif24, the z-score is inactive: -1.34.
As for GGAAACAACGGAUCCAAAATT against Plcb3, the z-score is active: 2.47.
Next, GCCUGUUGCUAUGAAUGGUTT against Zfp597: inactive: -1.05; GGUGAAUAACUGCUCUAUCTT against Zp1: inactive: 0.717.
As to CGAAGCCAUAAAUUUCAUATT against Aldh3a2, the z-score was inactive: -0.133.
Regarding GGAUCAGGAGCUGUUUGGATT against Tsrc1, the z-score is inactive: -0.168.
Consider “GCAUCCUGAUCACUUAACATT against 4933426L22Rik”, for which the z-score was inactive: -0.544.
For the sequence GGUUGGAUUAUGCAUAUUUTT against D3Ucla1, the z-score was inactive: -1.22.
In the case of GGCUAAAGAAUAAAGAUCCTT against Igsf4d, the z-score is inactive: 0.807.
With “GGUUUUCUGAAAUUGAGGATT against 2410003P15Rik”, the z-score is inactive: 0.874.
With GGCUCUGGAUGAAGAACUUTT against Gfpt2 the figure was inactive: -1.78.
Regarding GCACUGCCAGAGGUUCUGUTT against U90926, the z-score is inactive: 0.946.
As for CGAAGUGUUACUUUUUCAATT against Skp2, the z-score is inactive: -0.517.
Take GCUCCAGGGCAUUGUUUCUTT against Try10l: the z-score was inactive: -0.467.
Consider “GGUUUACUGGCCAAGAUGGTT against 4930579K19Rik”, for which the z-score is inactive: -0.719.
With GGCUAUGGAAAAAGAUAUGTT against Il21r the figure was inactive: -0.0695.
As for GCAACAUGUGAACAGAUGCTT against Btbd12, the z-score is inactive: 0.263.
Take GGCUCUUACUCCUGUAUGUTT against Thbd: the z-score is inactive: 0.913.
Take GCUUACUACUCCGUAAAUGTT against Aldh5a1: the z-score is inactive: -0.723.
For GCCUAACAGGGUCAAAUCUTT against Olfr272, the z-score was inactive: -2.44.
Regarding GGACUUGGUGGUAUCUUACTT against Sult4a1, the z-score was inactive: 0.97.
CUCCCAAAUACUGAUUAUATT against Trim6: the z-score was inactive: -1.2.
With GGAAUCUCAGACCAUCCAGTT against Cpa3 the figure was inactive: 2.35; with “CCUAAGGAAGAUAAACCGGTT against 4933412E14Rik”, inactive: -0.378.
With GGGUCAUCCAAACGCACAGTT against Uvrag1 the figure was inactive: 0.725; with GGUGGAUGAGUUGUUCCUUTT against Adck5, inactive: -0.317.
On to GGAUGAAAAUCUCUGUCCUTT against Anktm1, for which the z-score is inactive: 0.189.
In the case of GGAAGCCACUUCAGAAGCUTT against Olfr412, the z-score is inactive: 0.591.
Next, GCUCAGCUUAGCUGCUUUUTT against Olfr493: inactive: -1.12.
As for “GGAGGAAUUUCUUCUCUAUTT against D630002G06”, the z-score is inactive: 0.583.
Next, GGUUUGGAGUGACUUAAUATT against Scrn2: inactive: -0.000542; CCUUGUGAUGUUUAAAGACTT against Abcg1: inactive: 0.111.
As for “GUGCCAGUUGUGACAAUAUTT against 4930481M05”, the z-score was inactive: 1.45.
Next, “GGAAAAAAUGAACAAGACATT against 0610009O20Rik”: inactive: 0.468; GCCAUAUGUCAAGCCUGACTT against Scrn3: inactive: -1.14; GGACUGUGUCCUUCUAUGATT against Oas1f: inactive: 0.8.
As to “GGUUACAGAGCUACAUCGATT against A930017M01Rik”, the z-score is inactive: 0.758.
GGACUCAAUAAGAACCUCGTT against Papss1: the z-score was inactive: 0.267.
With GCUAAGGCCUUUAUUCGCUTT against Tlr11 the figure was inactive: 0.0407; with GGAGAACAAACUGAGGCACTT against Bzrpl1, inactive: 0.00433; with CCGUGGUUCUCUCUUAUAUTT against Olfr1106, inactive: 0.0862.
Turning to GCCGAACUUCGGAAUUCUGTT against Nf1, the z-score is inactive: -0.586.
With GGAGAUUUCCCGACUUAACTT against Tnip2, the z-score is inactive: 0.611.
Regarding GGUUCAGAAGUUUGUGAUGTT against V1rc16, the z-score is inactive: 0.306.
In the case of GGAUAUUCAAAUGGGUGCCTT against Bcl7b, the z-score is inactive: -0.189.
Take CCUUCAUUAACUGUGCCUATT against Slc7a7: the z-score is inactive: -0.948.
Turning to GGAAGGAGGGUAUGUGGUUTT against Lgals9, the z-score was inactive: -0.503.
Turning to GCAUGUUUUCCACAGCGAUTT against V1rb9, the z-score is inactive: 0.966.
Consider GGAAACCAGAGAACAAAACTT against Pmp22, for which the z-score is inactive: 0.0812.
Consider GCAGAUACCAUGAUACAGUTT against Usp49, for which the z-score was inactive: -0.0899.
With CCUGUCAUCACACUCGAGGTT against Coro6 the figure was inactive: -0.632; with “GGAAGACAUUGUCUUGUUUTT against C330043M08”, inactive: -0.171; with GGUGUCAUUAGCUUUACUUTT against Arcp, inactive: 1.95.
Take GCUGACCUUAAAUCCUGACTT against Pgpep1: the z-score was inactive: 0.496.
With CCAUCCUCCUACUCGUUAGTT against V1rf5, the z-score was inactive: 0.725.
CCCAAAACGGAAUAAGCUATT against Dusp8: the z-score is inactive: 0.475.
For GGCAGCUCUUACAACAGUATT against Htr3b, the z-score is inactive: 2.21.
For GGAGGACUUAGAGAGUAUGTT against Ctdp1, the z-score was inactive: 0.246.
As to GGAGAUGGAAGUAAUUUUUTT against Plk4, the z-score was inactive: -0.148.
On to GACAUAAGCGGUAACAUCATT against Gltp, for which the z-score is inactive: 3.45.
GGCCCUCUGAGAUUAAUGUTT against AY078069: the z-score was inactive: 0.56.
Next, “GGACCUUGGAUUGACAGGUTT against 1300004G08Rik”: inactive: 0.185.
Consider “GCGUGGUGUUGACUAUGAGTT against 0610039N19Rik”, for which the z-score was inactive: 0.841.
With CGCCUGACUUCGUGUAUUUTT against Prrg2 the figure was inactive: -0.54.
Turning to UUCGCUCUUGGUCCCUUCATT against Olfr1322, the z-score was inactive: -1.91.
With ACAAAGUCGCCUUCUUCCGTT against Gpr113, the z-score is inactive: -1.33.
On to GGGUGACAUCAUGACAGUGTT against Bcar1, for which the z-score was inactive: -2.09.
GGAGUUGUGUCCCAGAUUGTT against BC046386: the z-score was inactive: 1.23.
Regarding “GACUUAUAUUCCUCCAUCUTT against E330013P04Rik”, the z-score is inactive: -0.223.
Next, GUGUAGUGAUCAAUAGAUCTT against LOC432823: inactive: 0.322.
For GGUCAAGCCUUCCUUUUCUTT against Cldn23, the z-score is inactive: 0.714.
With “GGACCAAAUCCUCUGAUUCTT against D030060M11Rik” the figure was inactive: 0.827; with “GGCUGCAUAAAGGUGUUGATT against D12Ertd553e”, inactive: -0.027.
With GCAAAUGAGAGGUCUGUUGTT against Olfr1024, the z-score is inactive: -1.03.
Turning to GGAGAUCAAAAACAGCUUUTT against Tob1, the z-score is inactive: -1.14.
Consider GGAUGAAGGUGCUUUUAAATT against Gnrhr, for which the z-score was inactive: 0.802.
On to GGCCAAUUCCAGUGAGAUGTT against Gluld1, for which the z-score was inactive: -0.135.
Turning to CGGGCAUAUUGAUGUUAAATT against Fech, the z-score is inactive: 0.732.
With GCCGAUCCAGAUUAUCAACTT against Dscr3, the z-score is inactive: 1.09.
With GAGACAAUGCAGCAAAAUCTT against Gm839, the z-score was inactive: 2.47.
With GCCCUUUUGCCUCUGAACUTT against Capg, the z-score is inactive: 0.386.
Turning to CGAACCUACAGAGCUCAUGTT against Rpl17, the z-score was inactive: -2.32.
For CCAGAAUUGUUGUUUAUUCTT against Rbbp4, the z-score was inactive: 1.
Regarding GGAACUAACGGAAUUACUGTT against Arl3, the z-score is inactive: -1.87.
For GGAUCCUGUGGCUAAAGAGTT against BC036563, the z-score was inactive: -0.364.
In the case of GGUUCAGAACAAAAUCUACTT against Cd209d, the z-score is inactive: 0.517.
For “GGAAUAAGGCGAGUUGGAATT against 1200009K13Rik”, the z-score was inactive: -2.8.
As to GGCUAAUGUGCUUUCCCAUTT against Olfr643, the z-score is inactive: 2.29.
Turning to CGAGGCACUUCUCACUCAUTT against Cyp2c54, the z-score is inactive: -0.86.
“GGAGAAGUGACUUUUUCGUTT against 1700056O17Rik”: the z-score is inactive: 0.582.
With GAGCACAGUGCACGACCAATT against Mcfd2, the z-score is inactive: -0.416.
